Library screen at single concentrations

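Assay of Toxoplasma gondii numbers, read through their beta-galactosidase reporter with a colour substrate. Concentration: 50 µM. The record gives no direction; the compounds picked for IC50 retests had high values, so higher reads as fewer parasites. Of about 18,000 compounds tested this way, about 170 (0.94%) reached 50% or more in at least one test.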

The filed quantity is “Percent Effect” (%).
How 0% and 100% were set is not recorded. Most values in the screen are low, and negative values occur.
Compounds were drawn at random from those tested, without regard to their results.

Compound | percent effect
COc1cccc(NC(=O)CNC(C)(C)C)c1 | 2.942%
CS(=O)(=O)N1CCN(CCn2cncn2)CC1 | -9.201%
O=C1COc2c(Cl)cccc21 | 11.64%
CN(C)C(=O)C(C)(N)C(F)(F)F (stereo not shown) | -1.129%
CCN(C(=O)c1coc(S(=O)(=O)NC)c1)C1CC1 | -5.805%
O=C(Cc1ccccn1)N1CCCNCC1 | -6.814%
O=C(NCCCn1nccc1C1CC1)c1cn[nH]c1 | -7.528%
Cn1cc(CCc2nc3c([nH]2)CCCNC3=O)cn1 | 0.934%
CC(N)Cn1cccn1 (stereo not shown) | -0.4294%
COc1ncccc1CN(C)S(=O)(=O)c1cccs1 | -20.41%
NCCC(=O)Nc1ccccn1 | -7.827%
NC1COc2ccccc21 (stereo not shown) | 16.08%
NC(=O)C1CCN(C(=O)C2CCCO2)CC1 (stereo not shown) | 11.37%
O=C(C(O)c1ccccc1)N(CCO)Cc1ccsc1 (stereo not shown) | 11.77%
COc1cc(CNC(=O)NC2CCCC2)ccc1O | 8.221%
CC(C)Cn1ccnc(Cl)c1=O | -15.95%
CCOC(=O)CNC(=O)c1ccc2c(c1)OCCO2 | -7.739%
CC1=NOC(CNC(=O)Nc2ccccc2F)C1 (stereo not shown) | -30.54%
O=C(NC1CCN(C(=O)C2CC2)CC1)c1cnc[nH]1 | 9.434%
CCCn1cc(NC(C(N)=O)c2ccccc2)cn1 (stereo not shown) | -2.133%
COc1c(CNCCNC(=O)C2CC2)c(C)nn1C | 1.759%
CNC(=O)Cc1noc(-c2occc2C)n1 | 5.305%
CCCS(=O)(=O)N1CCC(C(=O)NCCOC)CC1 | 3.925%
O=C(NCCN1CCNCC1)c1ccco1 | 18.18%
CNS(=O)(=O)CCNC(=O)[C@@]12CNC[C@@H]1CN(C)C2 | -1.847%
COCCNc1ccc(C#N)cc1 | 6.03%
CC1(C)Oc2ccc(CN)cc2O1 | -5.193%
COc1cccc2c1OCCC2N (stereo not shown) | -8.045%
CSCCC(=O)N[C@@H]1CCOC[C@H]1OCCN(C)C | 1.426%
CN(C)C(=O)c1cc(-c2ccncc2)on1 | -7.199%
COc1cc(NC(=O)C2CCC2)c(C(N)=O)cc1OC | 0.9453%
CCNCCNC(=O)c1cc(F)cc(Br)c1 | -3.512%
COC(=O)c1ccc(COc2ccccc2CO)o1 | -5.492%
N[C@H]1c2ccccc2C[C@H]1F | 7.401%
CC(O)CN(C)c1cc(N2CCCCC2)ncn1 (stereo not shown) | -7.297%
CCN1CCC(CNC(=O)c2nc(C)c[nH]2)CC1 | -1.833%
CCc1nnc(CNc2cc([C@H]3C[C@@H](N)C3)ncn2)s1 | 8.12%
O=C1NCCNC1c1ccc(C(F)(F)F)cc1 (stereo not shown) | -3.949%
Cc1ccsc1C(=O)N(C)Cc1cn[nH]c1 | 4.348%
Cc1cc(Br)cc(C(=O)N2CCOCC2C(N)=O)c1 (stereo not shown) | 16.17%
Cc1c(Cl)cccc1N(S(C)(=O)=O)S(C)(=O)=O | -6.274%
CCOC(=O)c1csc(NC(=O)c2cnccn2)n1 | 15.44%
CCOC(=O)c1cn[nH]c1C1CCNC1 (stereo not shown) | -10.87%
CC(C(=O)NC1CCCC1)N1CCNCC1 (stereo not shown) | -1.786%
COc1ccc(CN2CC[C@@]3(O)CCCC[C@H]3C2)cn1 | -5.926%
Cc1cc(C)c(O)c(C(=O)NCCCS(N)(=O)=O)c1 | 2.258%
CS(=O)(=O)c1ccc(N2CCSCC2)c(S(C)(=O)=O)c1 | 13.06%
Nc1cc(-c2ccc(I)cc2)nn1CCO | 2.534%
CC(C)Cc1cc(CNC(C)CO)no1 (stereo not shown) | 2.221%
CSCC(CCO)NC(=O)c1cc(F)ccc1O (stereo not shown) | 96.99%
Cc1ccccc1C1(N)CC1 | 14.75%
COc1ccnc(N2CC[S+]([O-])CC2)n1 | -6.202%
Cc1ccoc1C(=O)NCc1ccnc(N(C)C)c1 | 27.66%
O=C(Nc1ccccn1)N1CCCN(C2CC2)CC1 | 3.024%
CN(CCCOc1cccc(Cl)c1)CC(N)=O | 16.15%
COc1ccc(NC(=O)NCc2cc[nH]n2)cc1 | -16.34%
Cc1ccsc1CN1CC(O)(CC#N)C1 | 0.8158%
COc1c(Br)cccc1CN | -16.07%
O=C(COc1ccc(F)cc1)OCCN1CCOCC1 | -16.41%
NC(CC(=O)N1CCSCC1)c1ccccc1 (stereo not shown) | -4.537%
CC(C)NC(=O)c1sc(N2CCCC2)nc1N | 0.8506%
CCCN1CC(NC(=O)c2cc(C(C)C)on2)CC1=O (stereo not shown) | -15.92%
CC(C)CC(CN)NS(=O)(=O)c1c(F)cccc1F (stereo not shown) | 31.19%
Cn1cc(CNc2ccc(F)cc2)cn1 | -3.257%
Cc1ccc(F)cc1S(=O)(=O)N1C[C@H](C2CC2)[C@@H](N)C1 | 98.86%
CC(C)(C)OC(=O)NCc1cccc(OCC(N)=O)c1 | 11.51%
CCCNS(=O)(=O)c1ccc2c(c1)N(C)C(=O)CO2 | -1.621%
CC(C)[C@H](N)C(=O)N1CCC(CCCN(C)C)CC1 | -4.127%
OCCOc1ccc(CNC2CC2)cc1 | -12.88%
c1cnn(CC2CCNCC2)c1 | -14.87%
COC(=O)C(C)Sc1nc2ncccn2n1 (stereo not shown) | -3.458%
CC(C)c1ccc(NC(=O)C2COCCN2C)cc1 (stereo not shown) | -5.304%
CCC(NC(=O)Cn1nc(C)cc1N)[C@H]1C[C@H](O)C1 (stereo partly shown) | 1.621%
CCS(=O)(=O)N(C)CCCNc1ccc(Cl)cn1 | 1.103%
Cc1ccc(C(=O)NCCSCCCO)cc1 | -2.37%
NC(=O)CN1CCC(C(O)c2ccccc2)CC1 (stereo not shown) | 4.529%
NCC1CCN(C2CCCCC2)C1 (stereo not shown) | 13.04%
C=C(C)CSCC(=O)NC(C)C(=O)N1CCCCC1 (stereo not shown) | 5.12%
CN(CCN1CCCC1=O)c1ncccc1I | -2.834%
CSCCC(=O)NCc1ccccc1F | -2.192%
CCn1cc(C(=O)NCc2nnc(C(C)C)n2C)cn1 | -7.428%
CNC(=O)C1CCCN1Cc1cccc(C(=O)OC)c1 (stereo not shown) | -5.158%
COC(C)(C)c1noc(-c2cccc(C)n2)n1 | 10.52%
COc1cccc(CNC(C)c2nnnn2C2CC2)c1 (stereo not shown) | -4.058%

Data taken from ChEMBL document CHEMBL3988442, “University of Dundee, Small-Polar-MMV Screening Library” (2021).